The target in the experiment is Flag-tagged wild-type UVRAG (UV irradiation resistance-associated gene protein) (human) (UniProt Q9P2Y5). The experiment can be described thus: co-IP; whole-cell lysates of 293T transfected with Flag-UVRAG^WT or Flag-UVRAG^FS, immunoprecipitated with anti-Flag, immunoblotted with anti-CEP63. A general note: In western blotting, separated proteins are transferred to a membrane and probed.

These are yes or no findings as the source states them, for the method shown. In cells and extracts the contact can be indirect. Some entries that bind do so weakly or less than the wild type. Where a sequence is shown, tags or fusion partners need not be part of it.

B1: centrosome protein CEP63 (protein, UniProt Q96MT8 1-703)
chain: MEALLEGIQNRGHGGGFLTSCEAELQELMKQIDIMVAHKKSEWEGRTHALETCLKIREQELKSLRSQLDVTHKEVGMLHQQVEEHEKIKQEMTMEYKQELKKLHEELCILKRSYEKLQKKQMREFRGNTKNHREDRSEIERLTAKIEEFRQKSLDWEKQRLIYQQQVSSLEAQRKALAEQSEIIQAQLVNRKQKLESVELSSQSEIQHLSSKLERANDTICANELEIERLTMRVNDLVGTSMTVLQEQQQKEEKLRESEKLLEALQEEKRELKAALQSQENLIHEARIQKEKLQEKVKATNTQHAVEAIRPREESLAEKKYTSQGQGDLDSVLSQLNFTHTSEDLLQAEVTCLEGSLESVSATCKQLSQELMEKYEELKRMEAHNNEYKAEIKKLKEQILQGEQSYSSALEGMKMEISHLTQELHQRDITIASTKGSSSDMEKRLRAEMQKAEDKAVEHKEILDQLESLKLENRHLSEMVMKLELGLHEAKEISLADLQENYIEALNKLVSENQQLQKDLMNTKSQLEISTQMCKKQNDRIFKPTHSRTTEFKNTEFKPTHGQHRHDGIKTEHYKTDLHSPRGQASDSINPMSRVLSPLSPQISPCSSTRSLTSYSLCKTHSLPSALDTNEANFSDTMSESMNDQEEFISSCSLPVSPLGSIATRFLEEEELRSHHILERLDAHIEELKRESEKTVRQFTALK
Regarding B1, the binding result is on record as “binds”.

The record behind these values is PMC4526116.
